HELM strings list residues between dots; [ac] is acetyl, [am] amide, other brackets name non-standard units.
Experiment: general procedure: Fmoc solid-phase peptide synthesis; Fmoc-Rink amide p-MBHA resin; TBTU/DIEA; PyBOP/HOAt/DIEA
Settings: whole synthesis, synthesis and purification, scale of the general procedure 200 μmol

“5(6)-Carboxyfluorescein-D-Pro-D-Trp-D-Val-D-Pro-D-Ser-D-Trp-D-Met-D-Pro-D-Pro-D-Arg-D-His-D-Thr-NH2” gave an isolated yield of 4.2%.
“HELM PEPTIDE1{[dA].[CN([C@H](Cc1ccccc1)C(=O)[*:2])[*:1]].[O=C([C@@H](Cc1ccc2ccccc2c1)N[*:1])[*:2]].[dV].[dL].[dK].[dK].[dP].[dW].[dV].[dP].[dS].[dW].[dM].[dP].[dP].[dR].[dH].[dT].[am]}$$$$V2.0 (SMILES CSCC[C@@H](NC(=O)[C@@H](Cc1c[nH]c2ccccc12)NC(=O)[C@@H](CO)NC(=O)[C@H]1CCCN1C(=O)[C@H](NC(=O)[C@@H](Cc1c[nH]c2ccccc12)NC(=O)[C@H]1CCCN1C(=O)[C@@H](CCCCN)NC(=O)[C@@H](CCCCN)NC(=O)[C@@H](CC(C)C)NC(=O)[C@H](NC(=O)[C@@H](Cc1ccc2ccccc2c1)NC(=O)[C@@H](Cc1ccccc1)N(C)C(=O)[C@@H](C)N)C(C)C)C(C)C)C(=O)N1CCC[C@@H]1C(=O)N1CCC[C@@H]1C(=O)N[C@H](CCCNC(=N)N)C(=O)N[C@H](Cc1c[nH]cn1)C(=O)N[C@@H](C(N)=O)[C@H](C)O)” showed an isolated yield of 9.5%.
Work on “PEPTIDE1{[DOPA].[dP].[dW].[dV].[dP].[dS].[dW].[dM].[dP].[dP].[dR].[dH].[dT].[am]}$$$$V2.0” yielded an isolated yield of 3.8%.

From patent US9475840B2 (UNIVERSITAT DE BARCELONA, priority 2012, dated 2016)
